Results taken from article PMC6469404.
No constants are given. Whether binding was seen depends on the method and setting. Binding seen in cells or lysates may run through a third protein. Some results given as binding are weak or reduced against the parent protein; the word gives no strength. Tags and fused reporters may be left off the sequences shown.

By UniProt entry, the sequences of proteins in these tests, tags left out.
UniProt P02994: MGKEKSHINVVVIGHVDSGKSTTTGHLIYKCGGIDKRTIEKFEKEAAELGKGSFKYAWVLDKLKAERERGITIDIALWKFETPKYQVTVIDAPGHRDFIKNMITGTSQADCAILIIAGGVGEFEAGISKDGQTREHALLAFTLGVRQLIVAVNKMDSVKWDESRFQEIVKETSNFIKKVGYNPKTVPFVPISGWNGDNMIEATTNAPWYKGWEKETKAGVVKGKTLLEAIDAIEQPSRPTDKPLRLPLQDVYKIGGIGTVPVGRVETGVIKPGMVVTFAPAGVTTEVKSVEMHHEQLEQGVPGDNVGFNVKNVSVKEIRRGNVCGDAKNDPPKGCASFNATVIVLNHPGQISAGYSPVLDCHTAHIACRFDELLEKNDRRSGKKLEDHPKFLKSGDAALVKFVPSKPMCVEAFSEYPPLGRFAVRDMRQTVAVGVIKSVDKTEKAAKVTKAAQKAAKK

Tests used:
Experiment in all cases: pull-down; calmodulin affinity purification coupled to western blot (AP-WB): TAP-tagged interactor as bait on calmodulin sepharose beads, galactose-induced Wsc1-HA as prey, yeast lysate in CaM-IPLB with 1% Triton X-100, 2 hr at 4°
[1] = target: T1, Egd2p, TAP-tagged bait (S. cerevisiae) (UniProt P38879)
T1 sequence: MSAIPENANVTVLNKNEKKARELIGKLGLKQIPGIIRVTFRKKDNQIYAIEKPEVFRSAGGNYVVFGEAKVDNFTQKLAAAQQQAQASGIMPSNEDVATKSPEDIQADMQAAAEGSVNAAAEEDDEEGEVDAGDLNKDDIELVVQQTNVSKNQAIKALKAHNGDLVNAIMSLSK

[2] = target: T2, Fba1p, TAP-tagged bait (S. cerevisiae) (UniProt P14540)
T2 sequence: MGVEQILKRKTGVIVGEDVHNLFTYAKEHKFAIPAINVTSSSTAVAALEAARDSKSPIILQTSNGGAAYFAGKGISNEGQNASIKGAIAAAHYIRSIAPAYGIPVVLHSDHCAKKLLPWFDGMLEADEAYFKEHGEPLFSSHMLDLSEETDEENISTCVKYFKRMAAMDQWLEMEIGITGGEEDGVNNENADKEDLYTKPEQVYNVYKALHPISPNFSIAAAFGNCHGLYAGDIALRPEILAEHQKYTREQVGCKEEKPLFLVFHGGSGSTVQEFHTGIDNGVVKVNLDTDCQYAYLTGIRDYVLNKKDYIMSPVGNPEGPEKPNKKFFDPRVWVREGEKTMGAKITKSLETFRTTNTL

[3] = target: T3, Mek1p, TAP-tagged bait (S. cerevisiae) (UniProt P24719)
T3 sequence: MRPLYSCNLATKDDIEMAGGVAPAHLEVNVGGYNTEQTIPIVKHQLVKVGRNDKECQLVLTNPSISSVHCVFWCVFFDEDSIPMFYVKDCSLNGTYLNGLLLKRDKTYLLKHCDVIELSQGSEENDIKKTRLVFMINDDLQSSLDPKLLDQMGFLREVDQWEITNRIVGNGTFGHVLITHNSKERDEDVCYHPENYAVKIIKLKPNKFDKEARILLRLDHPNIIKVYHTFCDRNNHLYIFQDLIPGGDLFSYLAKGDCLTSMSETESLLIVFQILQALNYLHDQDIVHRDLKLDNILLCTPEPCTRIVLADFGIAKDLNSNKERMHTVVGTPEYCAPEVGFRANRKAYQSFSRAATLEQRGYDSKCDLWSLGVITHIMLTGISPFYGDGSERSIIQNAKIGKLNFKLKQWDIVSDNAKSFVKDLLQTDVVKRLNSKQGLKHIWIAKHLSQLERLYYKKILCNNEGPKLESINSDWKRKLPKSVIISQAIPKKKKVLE

[4] = target: T4, Ras2p, TAP-tagged bait (S. cerevisiae) (UniProt P01120)
T4 sequence: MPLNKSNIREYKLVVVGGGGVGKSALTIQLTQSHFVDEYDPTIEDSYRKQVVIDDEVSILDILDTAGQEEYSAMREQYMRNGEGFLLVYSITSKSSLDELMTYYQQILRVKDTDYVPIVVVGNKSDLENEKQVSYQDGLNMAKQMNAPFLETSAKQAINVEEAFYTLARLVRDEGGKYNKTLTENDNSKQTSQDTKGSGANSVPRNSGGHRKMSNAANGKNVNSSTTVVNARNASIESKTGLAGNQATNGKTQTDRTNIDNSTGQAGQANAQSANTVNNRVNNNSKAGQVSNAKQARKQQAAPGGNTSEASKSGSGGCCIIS

[5] = target: Tef1p, TAP-tagged bait (S. cerevisiae) (UniProt P02994)
[6] = target: T5, Ypl238cp, TAP-tagged bait (S. cerevisiae) (UniProt Q99401)
T5 sequence: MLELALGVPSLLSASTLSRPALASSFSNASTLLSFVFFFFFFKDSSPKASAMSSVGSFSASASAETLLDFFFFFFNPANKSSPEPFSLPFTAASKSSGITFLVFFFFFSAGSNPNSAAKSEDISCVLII

[7] = target: T6, Zeo1p, TAP-tagged bait (S. cerevisiae) (UniProt Q08245)
T6 sequence: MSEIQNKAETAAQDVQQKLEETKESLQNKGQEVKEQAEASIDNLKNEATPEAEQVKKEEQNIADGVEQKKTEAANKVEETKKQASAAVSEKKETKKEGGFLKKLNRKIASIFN

- binding [1]: binds
- binding [2]: binds
- binding [3]: binds
- binding [4]: binds
- binding [5]: binds
- binding [6]: binds
- binding [7]: binds
B1: Wsc1-HA (protein, UniProt P54867 22-378)
chain: YEYVNCFSSLPSDFSKADSYNWQSSSHCNSECSAKGASYFALYNHSECYCGDTNPSGSESTSSSCNTYCFGYSSEMCGGEDAYSVYQLDSDTNSNSISSSDSSTESTSASSSTTSSTTSSTTSTTSSTTSSTTSSMASSSTVQNSPESTQAAASISTSQSSSTVTSESSLTSDTLATSSTSSQSQDATSIIYSTTFHTEGGSTIFVTNTITASAQNSGSATGTAGSDSTSGSKTHKKKANVGAIVGGVVGGVVGAVAIALCILLIVRHINMKREQDRMEKEYQEAIKPVEYPDKLYASSFSSNHGPSSGSFEEEHTKGQTDINPFDDSRRISNGTFINGGPGGKNNVLTVVNPDEAD
